Screen size: about 400,000 compounds; about 13,000 (3.2%) were called active. This list was built around the results that the source calls inconclusive (neither active nor inactive); the mix of calls is not that of the screen. Calls follow the shape of the dose curve; as a rule, active = well fitted cell-killing curve with a large enough effect; inconclusive = small, poorly fitted or top-dose-only effect, or effect the other way; inactive = flat fitted curve, though single readings scatter. A potency beside an inconclusive call is a rough fit, not a confirmed value.
Experiment: qHTS assay for MDR1-selective chemotherapeutics: Primary screen using the drug-selected MDR subline cells KB-V1; also: nearly all actives have a fitted effect of over 60% in size
Details: KB-V1 MDR cells viability, CellTiter-Glo, 72 h; activity change, negative = cytotoxicity: at 46.1 µM (top of the series)
Outline: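 KB-V1 cells (P-gp-expressing MDR subline of KB-3-1) in phenol-red-free DMEM with 10% FBS were exposed to library compounds over a concentration series for 72 h at 37 degrees C. Viability read by CellTiter-Glo luminescence; concentration-effect curves fitted after normalization.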
% is scaled to controls: 0 for no effect and ±100 for the full control effect; potency is read from the fitted curve at half-maximal effect.

Compound | Potency | activity change, negative = cytotoxicity
O=C1CCC(C(=O)OCC(=O)N2N=C3/C(=C\c4ccccc4)CCCC3C2c2ccccc2)N1 (stereo unspecified) | inactive | –
O=C(NC1CCCCCC1)c1ccc2nc3cc(Cl)ccc3c(=O)n2c1 | inconclusive: 6.51 µM [cytotoxic, partial curve] | –
COC(=O)CC/C(O)=C1\C(=O)CC(C)(C)CC1=Nc1ccccc1OC | inconclusive: 23.1 µM [cytotoxic, partial curve, poor fit] | –
COc1ccc2c(c1)c(C(=O)N/N=C/c1ccc(Br)cc1)c(C)n2C | inconclusive: 14.6 µM [cytotoxic, partial curve, poor fit] | –
CCOc1ccc(OCc2cccc(C(=O)Nc3ccc(CN4CCCCC4)cc3)c2)cc1 | inconclusive: 20.6 µM [cytotoxic, single point] | –
Cc1ccc(S(=O)(=O)c2c(C(=O)c3ccccc3)cnc3cc4c(cc23)OCCO4)cc1 | inconclusive: 16.4 µM [cytotoxic, partial curve] | –
C=CCSc1nnc(NC(=O)COc2ccc3ccccc3c2)s1 | inactive | –
Cc1[nH]c2ccccc2c1C(c1c[nH]c2ccccc12)c1c(C)[nH]c2ccccc12 | inactive | –
CCOC(Cn1cc([N+](=O)[O-])c(=O)[nH]c1=O)OCC | inconclusive: 29.1 µM [rising, single point] | –
Cn1cnc([N+](=O)[O-])c1Sc1nc(N)nc2c1ncn2C1CC(O)C(CO)O1 (stereo unspecified) | active: 5.17 µM | –
COc1ccc(NC(=O)Nc2nc3c(s2)CCCC3)cc1 | inactive | –
COc1ccc(OC)c(-c2nnc3n2N=C(c2ccc(OC)c(OCC4CC4)c2)CS3)c1 | active: 4.61 µM | –
CCC(=O)[C@@]1(C)[C@H](C)C[C@H]2[C@@H]3CCC4=CC(=O)C=C[C@]4(C)[C@H]3[C@@H](O)C[C@@]21C | inconclusive: 3.26 µM [cytotoxic, partial curve, poor fit] | –
CCOc1ccc(N(CC)S(=O)(=O)N2CCCC(C(=O)Nc3cc(Cl)ccc3C)C2)cc1 (stereo unspecified) | inactive | –
C=CCOc1ccc(/C=C(\C#N)C(=O)Nc2ccccn2)cc1OC | inactive | –
Cc1ccc(C(=O)C=CNNC(=O)c2ccccc2)cc1 | inconclusive: 0.517 µM [rising, full curve, poor fit] | –
CCOc1ccc(N(CCC#N)S(=O)(=O)c2ccc(OC)cc2)cc1 | active: 20.6 µM | –
CC(=O)c1c(C)oc2c(Br)cc(NS(=O)(=O)c3ccc(Br)cc3)cc12 | inconclusive: 16.4 µM [cytotoxic, single point] | –
Cc1ccc(Nc2c(-c3ccccc3O)nc3ccc(Br)cn23)cc1 | inactive | –
CC#CCOC(=O)c1c(C)nc2sc3c(c2c1N)CCC(O)C3 (stereo unspecified) | active: 11.6 µM | –
C/C(=N\NC(=S)NC1CCCCC1)c1ccc(O)cc1 | inconclusive: 16.4 µM [cytotoxic, partial curve] | –
COc1ccc([C@H]2C[C@H](n3cc(COC(=O)c4ccccc4)nn3)[C@@H](O)CN2Cc2cccs2)cc1 | inactive | –
CCn1nc(NC(=O)c2ccco2)c2cc3ccccc3nc21 | inconclusive: 16.4 µM [cytotoxic, partial curve] | –
CCOc1cccc(C(=O)NC(=S)Nc2ccc(N3CCN(CC)CC3)cc2)c1 | inactive | –

Compound | Potency | activity change, negative = cytotoxicity
Cc1ccc(-c2csc(NC(=S)NC(=O)c3cc4ccccc4o3)n2)cc1 | inconclusive: 16.4 µM [cytotoxic, partial curve, poor fit] | –
Cc1nn(C)c(Oc2cccc(Cl)c2)c1C(=O)Nc1ccc(F)cc1 | active: 14.6 µM | –
O=c1[nH]c(-c2ccccn2)nc2sc(-c3ccccc3)cc12 | inconclusive: 1.46 µM [cytotoxic, partial curve] | –
CCOc1ccc(S(=O)(=O)N2CCN(c3ccccc3)CC2)cc1C(N)=O | inactive | –
COc1ccc(NC(=O)c2cn(-c3ccccc3)nc2SC)cc1 | inconclusive: 10.3 µM [cytotoxic, partial curve, poor fit] | –
Cc1cccn2c(=O)c3cc(C#N)c(=N)n(Cc4cccnc4)c3nc12 | inconclusive: 29.1 µM [rising, single point] | –
CCN(CC)CCNC(=O)c1ccc2c(c1NCCO)C(=O)c1ccccc1C2=O | active: 7.31 µM | –
Cn1c(=O)[nH]c(=O)c2c1nc(N1CCCCC1)n2CCCSc1nnnn1-c1ccccc1 | active: 9.2 µM | –
CCOC(=O)N1CCN(c2c(N3CCN(c4ccc(F)cc4)CC3)c(=O)c2=O)CC1 | inactive | –
COc1ccc(NC(=O)Nc2nnc(C(C)(C)C)s2)cc1 | inconclusive: 7.31 µM [cytotoxic, full curve, poor fit] | –
Cc1cccc(NC(=O)CSc2nc3c([nH]c4ccccc43)c(=O)n2C)c1 | inconclusive: 16.4 µM [cytotoxic, single point] | –
CN1CCc2cccc3c2C1Cc1ccc(O)c(O)c1-3 (stereo unspecified) | inactive | –
O=C(NC(Nc1cc(C(F)(F)F)ccc1Cl)C(=O)c1ccccc1)c1ccccc1 (stereo unspecified) | inconclusive: 20.6 µM [cytotoxic, partial curve] | –
CSCCC(C(=O)Nc1c(C)cccc1C)N1CCN(C/C=C/c2ccccc2)CC1 (stereo unspecified) | inactive | –
CCOc1ccc(CCNC(=O)C2CCN(S(=O)(=O)N3CCC(C)CC3)CC2)cc1OCC | active: 2.59 µM | –
O=C(COC(=O)C12CC3CC(CC(Br)(C3)C1)C2)Nc1c(F)cccc1F | – | inconclusive: -31.5% [cytotoxic]
N#C/C(=C/c1ccc(N2CCOCC2)o1)C(=O)Nc1ccccc1 | inconclusive: 13 µM [cytotoxic, partial curve] | –
CC(C)CC(=O)NC(NC(=S)Nc1ccccc1)C(Cl)(Cl)Cl (stereo unspecified) | inconclusive: 11.6 µM [cytotoxic, partial curve, poor fit] | –
Cc1cc(NCc2cccnc2)no1 | inconclusive: 5.8 µM [rising, full curve] | –
Cn1c(SCC(=O)NNC(=S)Nc2ccccc2)nnc1-c1ccccc1 | inconclusive: 29.1 µM [rising, single point] | –
Cc1cccc(C)c1NC(=O)C(c1ccccc1)N1CCC(c2ccccc2)CC1 (stereo unspecified) | inactive | –
OCCN1CCN(c2cc(C(F)(F)F)nc3c(F)cccc23)CC1 | inconclusive: 32.6 µM [cytotoxic, single point] | –
O=C(Nc1ccccc1)c1cc([N+](=O)[O-])ccc1N1CCCCC1 | inactive | –
O=C(O)c1ccc(NS(=O)(=O)/C=C/c2ccccc2)cc1 | inconclusive: 20.6 µM [rising, single point] | –

Compound | Potency | activity change, negative = cytotoxicity
COc1ccc(OCc2nnc(-c3ccccc3)o2)cc1 | inconclusive: 29.1 µM [cytotoxic, single point] | –
O=C(Nc1ccncc1)c1ccc2ccccc2c1 | active: 16.4 µM | –
CCOc1ccc(/C=C(\C(=O)O)c2ccc(S(=O)(=O)N3CCOCC3)s2)cc1OC | inconclusive: 29.1 µM [rising, single point] | –
CCN(CC)S(=O)(=O)c1cccc(-c2nnc(SCC#N)n2Cc2ccccc2)c1 | inconclusive: 20.6 µM [cytotoxic, single point] | –
CSCCC(NC(=O)COc1ccccc1)C(=O)N1CCC(C(N)=O)CC1 (stereo unspecified) | inconclusive: 29.1 µM [rising, single point] | –
O=C(NCCCN1CCCC1=O)C(=O)NCC1OCCCN1S(=O)(=O)c1ccccc1 (stereo unspecified) | inconclusive: 29.1 µM [rising, single point] | –
CN(C)c1ccc(NC(=O)CN2CCC(C(=O)c3ccc(F)cc3)CC2)cc1 | inconclusive: 18.4 µM [cytotoxic, single point] | –
COc1ccc(NC(=O)CSc2nnc(Cc3cccn3C)n2CCc2ccccc2)c(OC)c1 | active: 3.26 µM | –
CCc1nc2ccc(C(=O)Nc3cc(-c4ccccc4)ccc3OC)cn2c1N(C=O)CCC(C)C | inactive | –
CCc1nc2ccc(C(=O)N3CCN(c4ccccc4)CC3)cn2c1N(C)CCCc1ccccc1 | inconclusive: 29.1 µM [cytotoxic, single point] | –
Clc1ccccc1-c1ccc(/C=N/n2cnnc2)o1 | active: 3.26 µM | –
Cc1ccccc1CSCCNC(=S)Nc1ccccc1 | inconclusive: 23.1 µM [cytotoxic, single point] | –
Cc1cc(C(=O)NCc2cccnc2)no1 | inactive | –
Cn1c(SCC(=O)NCC2CCCO2)ncc(C(=O)Nc2ccccc2)c1=O (stereo unspecified) | inconclusive: 25.9 µM [rising, partial curve, poor fit] | –
CCOC(=O)C(C)Sc1ccc2nnc(-c3ccc(OCC)cc3)n2n1 (stereo unspecified) | inconclusive: 25.9 µM [cytotoxic, single point] | –
CC(C)CC1NC(=O)N(CC(=O)Nc2ccc(OCc3ccccc3)cc2)C1=O (stereo unspecified) | inactive | –
Cc1ccc([C@H]2C[C@H](O)[C@@H](n3cc(COC(=O)c4ccccc4)nn3)CN2Cc2cccs2)cc1 | inconclusive: 16.4 µM [cytotoxic, partial curve, poor fit] | –
COc1ccc(-c2ccc3ncnc(NCC4CCCO4)c3c2)cc1OC (stereo unspecified) | inconclusive: 18.4 µM [cytotoxic, single point] | –
C/C(=N/NC(=O)c1ccc(C)s1)c1cccc(NC(=O)COc2ccc(Cl)cc2Cl)c1 | inactive | –
COC(=O)c1sc2nc[nH]c(=O)c2c1C | inconclusive: 32.6 µM [cytotoxic, single point] | –
Cc1cc(NC(=O)C(C)SCC(=O)Nc2cc(C(F)(F)F)ccc2N2CCOCC2)no1 (stereo unspecified) | inactive | –
Cc1nn(C)c2c1c(C(F)(F)F)cc(=O)n2CC(=O)NCc1ccccc1Cl | inactive | –
CC(C)C[C@H]1CN(CCCC[C@@H]2CNC(=O)C(=O)N2CC2CCCCC2)C(=O)C(=O)N1CCc1ccc(O)cc1 | inconclusive: 18.4 µM [rising, single point] | –

Molecules from the list above containing a CF3 group, in the order listed:
Compound | Potency | activity change, negative = cytotoxicity
O=C(NC(Nc1cc(C(F)(F)F)ccc1Cl)C(=O)c1ccccc1)c1ccccc1 (stereo unspecified) | inconclusive: 20.6 µM [cytotoxic, partial curve] | –
OCCN1CCN(c2cc(C(F)(F)F)nc3c(F)cccc23)CC1 | inconclusive: 32.6 µM [cytotoxic, single point] | –
Cc1cc(NC(=O)C(C)SCC(=O)Nc2cc(C(F)(F)F)ccc2N2CCOCC2)no1 (stereo unspecified) | inactive | –
Cc1nn(C)c2c1c(C(F)(F)F)cc(=O)n2CC(=O)NCc1ccccc1Cl | inactive | –
